Record: PubChem BioAssay AID1259424 (University of Nebraska Medical Center, 2018)
Here is one part, drawn at random, of about 14,000 reagents tested. 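Higher correlation or smaller distance means closer resemblance to KSR1 loss; control wells, including KSR1 knockdowns, recur on many plates.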 No sequences are given here. The record does not give: the time to read-out.

Test: 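Seek colon cancer survival genes behaving like KSR1, using a six-gene signature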 (primary screen)
Cell system: human HCT116 colon cancer cells
Knock-down reagent: siRNA pool against human genes, 50 nM
Read-out: 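Log2 levels of six mRNAs (branched-DNA multiplex), adjusted by two reference genes and the non-targeting median, then scored against the average KSR1 knockdown pattern as Pearson r and euclidean distance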
Direction: mean correlation with KSR1 profile and KSR1 correlation: higher = expression change more like KSR1 knockdown; mean distance from KSR1 profile: higher = expression change less like KSR1 knockdown

| target | mean correlation with KSR1 profile | mean distance from KSR1 profile | KSR1 correlation, replicate 1 | KSR1 correlation, replicate 2 | KSR1 correlation, replicate 3 |
| --- | --- | --- | --- | --- | --- |
| FAXC (GeneID 84553) | 0.637 | 3.79 | 0.687 | 0.558 | 0.432 |
| ATXN3 (GeneID 4287) | 0.0417 | 1.53 | -0.0241 | 0.00863 | 0.171 |
| LCE3D (GeneID 84648) | 0.0399 | 3.47 | 0.128 | -0.0166 | -0.248 |
| LIPT1 (GeneID 51601) | -0.358 | 2.11 | -0.136 | -0.33 | -0.328 |
| PRKCI (GeneID 5584) | 0.432 | 1.41 | 0.665 | 0.356 | 0.14 |
| GLTP (GeneID 51228) | -0.34 | 4.27 | -0.59 | -0.231 | -0.155 |
| PDK2 (GeneID 5164) | -0.129 | 1.73 | 0.181 | -0.0352 | -0.409 |
| SLC24A2 (GeneID 25769) | -0.013 | 1.97 | 0.314 | -0.31 | -0.266 |
| FBXW8 (GeneID 26259) | -0.753 | 2.48 | -0.829 | -0.651 | -0.774 |
| KRT35 (GeneID 3886) | 0.394 | 0.99 | 0.764 | -0.0988 | 0.462 |
| TCEA1 (GeneID 6917) | -0.309 | 2.14 | -0.031 | 0.0816 | -0.504 |
| HPR (GeneID 3250) | 0.809 | 1.96 | 0.733 | 0.758 | 0.828 |
| GDI2 (GeneID 2665) | -0.468 | 1.92 | -0.439 | -0.402 | -0.456 |
| SLC66A1 (GeneID 54896) | -0.396 | 1.75 | -0.0884 | -0.357 | -0.548 |
| TRPC4AP (GeneID 26133) | -0.0294 | 1.9 | 0.0929 | 0.00324 | -0.182 |
| ZIC5 (GeneID 85416) | 0.256 | 1.99 | 0.214 | 0.22 | 0.0806 |
| LPAR6 (GeneID 10161) | 0.327 | 3.91 | 0.348 | 0.572 | 0.378 |
| ZNF271P (GeneID 10778) | -0.284 | 1.84 | 0.0632 | -0.28 | -0.435 |
| PZP (GeneID 5858) | -0.482 | 1.48 | -0.405 | -0.679 | 0.242 |

4 of these entries in another layout:
target	mean correlation with KSR1 profile	mean distance from KSR1 profile	KSR1 correlation, replicate 1	KSR1 correlation, replicate 2	KSR1 correlation, replicate 3
KRT35 (GeneID 3886)	0.394	0.99	0.764	-0.0988	0.462
TCEA1 (GeneID 6917)	-0.309	2.14	-0.031	0.0816	-0.504
HPR (GeneID 3250)	0.809	1.96	0.733	0.758	0.828
GDI2 (GeneID 2665)	-0.468	1.92	-0.439	-0.402	-0.456

The results go on:
| target | mean correlation with KSR1 profile | mean distance from KSR1 profile | KSR1 correlation, replicate 1 | KSR1 correlation, replicate 2 | KSR1 correlation, replicate 3 |
| --- | --- | --- | --- | --- | --- |
| ZIM2 (GeneID 23619) | -0.183 | 1.39 | 0.214 | -0.526 | -0.245 |
| CSNK1G1 (GeneID 53944) | -0.377 | 3.21 | -0.314 | -0.507 | -0.519 |
| TBC1D22B (GeneID 55633) | -0.283 | 1.17 | -0.659 | -0.0855 | -0.435 |
| CELA3B (GeneID 23436) | -0.405 | 2.63 | -0.553 | -0.38 | -0.375 |
| GCN1 (GeneID 10985) | -0.553 | 2.32 | -0.312 | -0.623 | -0.553 |
| TFAP2C (GeneID 7022) | 0.341 | 1.64 | 0.412 | 0.288 | 0.447 |
| BUD13 (GeneID 84811) | -0.0315 | 2.36 | -0.212 | -0.0953 | -0.0105 |
| FOXH1 (GeneID 8928) | 0.18 | 1.42 | 0.126 | 0.589 | 0.188 |
| DDX50 (GeneID 79009) | -0.484 | 2.76 | -0.692 | -0.608 | 0.084 |
| PSMD8 (GeneID 5714) | -0.288 | 1.87 | -0.143 | -0.478 | -0.421 |
| PLEK (GeneID 5341) | 0.615 | 0.833 | 0.454 | 0.437 | 0.545 |
| CTNNA2 (GeneID 1496) | -0.207 | 1.26 | 0.151 | -0.375 | -0.344 |
| PARD3B (GeneID 117583) | 0.234 | 1.26 | 0.626 | 0.0957 | 0.311 |
| IRF7 (GeneID 3665) | -0.45 | 2.81 | -0.0255 | -0.389 | -0.51 |
| EPHX1 (GeneID 2052) | 0.472 | 1.79 | 0.362 | 0.644 | 0.473 |
| ZNF239 (GeneID 8187) | -0.263 | 2.22 | -0.0707 | -0.332 | -0.402 |
| PALMD (GeneID 54873) | -0.388 | 2.94 | -0.581 | -0.407 | -0.283 |
| CES3 (GeneID 23491) | 0.666 | 1.44 | 0.704 | 0.654 | 0.472 |
| RNF139 (GeneID 11236) | -0.491 | 1.33 | -0.741 | -0.14 | -0.276 |
| PCDHGB5 (GeneID 56101) | -0.163 | 2.15 | -0.025 | -0.222 | -0.36 |
| NBN (GeneID 4683) | 0.52 | 1.76 | 0.576 | 0.401 | 0.401 |
| FBLN2 (GeneID 2199) | 0.222 | 2.06 | 0.0602 | 0.248 | 0.139 |
| ETFDH (GeneID 2110) | -0.322 | 2.73 | -0.502 | -0.389 | 0.212 |
| FCGR2B (GeneID 2213) | 0.414 | 1.97 | 0.312 | 0.367 | 0.512 |
| CD164 (GeneID 8763) | -0.0353 | 2.63 | 0.124 | -0.427 | -0.183 |
| NES (GeneID 10763) | -0.42 | 2.17 | -0.285 | -0.569 | -0.216 |
| FIBCD1 (GeneID 84929) | 0.427 | 2.32 | 0.399 | 0.149 | 0.0857 |
| SYTL1 (GeneID 84958) | 0.827 | 2.14 | 0.891 | 0.653 | 0.812 |
| CLDN11 (GeneID 5010) | -0.0778 | 1.92 | -0.132 | 0.0284 | -0.192 |
| SAMD4A (GeneID 23034) | -0.828 | 1.46 | -0.81 | -0.926 | -0.41 |
| DHPS (GeneID 1725) | -0.0301 | 1.57 | -0.152 | 0.209 | -0.216 |
